Experimental data taken from PubChem BioAssay AID1307 (SRMLSC, 2008).
The campaign covered roughly 1,200 compounds. Fewer than 10 were called active.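 Rule for the calls: active = inhibition reaching a set limit at one or more tested concentrations; inactive = inhibition under that limit at every dose.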 The list shows a part of the results. Measured potencies and affinities stand elsewhere.

Test: RAM pathway signaling blockade in S. cerevisiae – dose response (AID 1307);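 note: 0% = DMSO vehicle wells and 100% = 10 µM 1-NA-PP1 control; higher inhibition means more yeast growth since RAM block rescues cells from 5-FOA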
Conditions: S. cerevisiae RAM network URA3 reporter, 5-FOA growth OD615, active compounds read high, yeast express analog-sensitive mutant Cbk1 kinase; at 100 µM unless noted

Max inhibition, inactive:
C/C(=N\OC(=O)c1ccc(OC(C)C)cc1)c1ccc(C)c(C)c1 3.12%
O=C(COc1ccccc1)OC(C(=O)c1ccccc1)c1ccccc1 (centres undefined) 2.05% [at 50 µM]
O=C(COC(=O)/C(=C/c1cccs1)c1cccs1)NCc1ccccc1Cl 3.28% [at 0.196 µM]
O=S(=O)(c1ccccc1)n1nc(-c2ccccc2)nc1NCc1ccco1 5.15%
CCCCC(=O)Nc1ccccc1C(=O)OCC(=O)c1ccc2c(c1)OCCO2 2.31% [at 0.196 µM]
O=C(Nc1ccccc1)C1=C[C@@H](C2CCCCC2)C[C@@H](OCc2ccc(CO)cc2)O1 4.47%
S=C(c1ccc(-c2cc(Cl)ccc2Cl)o1)N1CCCCC1 2.31% [at 50 µM]
Cc1cccc(Nc2nc(NCc3ccco3)c3ccccc3n2)c1 0.95% [at 0.196 µM]
CCOP(=O)(OCC)C(Nc1cccc(C(F)(F)F)c1)c1ccc(Br)cc1 (centres undefined) -0.48% [at 25 µM]
Cn1c(N=Nc2ccc(N3CCOCC3)cc2)[n+](C)c2ccccc21 25%
O=C(Nc1cc(Sc2ccccn2)cc([N+](=O)[O-])c1)c1cccc(Cl)c1 2.43% [at 50 µM]
COc1nc(-c2ccccc2)ccc1-c1noc(COc2ccccc2)n1 5.72% [at 50 µM]
CCC(Oc1ccc2c(=O)c(-c3ccccc3OC)coc2c1)C(=O)OCc1ccccc1 (centres undefined) 5.06%
CCCCn1c(-c2cccs2)nc2nc3ccccc3nc21 4.04% [at 1.563 µM]
Cc1ccc(C(=O)C(OC(=O)CCC(=O)Nc2cccc(C)c2)c2ccccc2)cc1 (centres undefined) 5.19%
CCCNC(=O)c1ccccc1NC(=O)c1ccc(CSc2ccccc2)cc1 5.46% [at 50 µM]
CCN(CC)S(=O)(=O)c1cccc(-c2nnc(SCCOc3ccccc3C)o2)c1 2.73% [at 25 µM]
CC(=C\c1ccccc1)/C=C1/SC(=S)N(C(C(=O)O)C(C)C)C1=O (centres undefined) 4.56% [at 50 µM]
COc1cc(/C=N/OCC(=O)NC23CC4CC(CC(C4)C2)C3)ccc1OCc1ccccc1 2.77%
Fc1ccc(CSc2nnc(-c3cc4c(s3)-c3ccccc3CC4)o2)cc1 3.84% [at 25 µM]
CC1CCCC(NC(=O)COC(=O)CSc2ccc3ccccc3c2)C1C (centres undefined) 2.5% [at 6.25 µM]
COCCN1C(=O)/C(=C/c2ccc(N3CCCC3)cc2C)SC1=S 2.82%
O=C(CSCc1ccc(Cl)cc1)Nc1cccc(C(=O)Nc2ccccc2C(=O)O)c1 1.32% [at 0.196 µM]
COc1cccc(N/C(SCc2cccc([N+](=O)[O-])c2)=C(/C#N)C(=O)NCc2cccs2)c1 2.89%
O=C(COC(=O)CNS(=O)(=O)c1cccc(Br)c1)Nc1ccccc1Sc1ccccc1 1.5% [at 1.563 µM]
CCCCSC1=N/C(=C/c2ccsc2)C(=O)N1c1ccccc1 4.01%
O=C(Nc1ccn(Cc2ccccc2F)n1)c1ccc(COc2ccc(Br)cc2)cc1 3.47% [at 3.125 µM]
CCOC(=O)c1c(NC(=S)Nc2ccc(OC)cc2)sc2c1CCCCC2 3.37% [at 1.563 µM]
Cc1cccc(C(=O)Nc2cccc(OC(=O)c3cccc(C)c3)c2)c1 7.03%
CN(C(=O)COC(=O)c1sc2ccccc2c1Cl)C1CCCCC1 2.53% [at 0.782 µM]
CCOC(=O)c1c(NC(=O)CN2CCCc3ccccc32)sc(C)c1CC 3.9%
COc1ccccc1NC(=O)C(Sc1ccccc1)c1ccccc1 (centres undefined) 2.18% [at 50 µM]
Cc1ccc(N/N=C/c2c(C)c(C#N)c(=O)n(C)c2O)cc1C 2.33% [at 0.782 µM]
N#Cc1c(N)n(CCOC(=O)c2cccc([N+](=O)[O-])c2)c2nc3ccccc3nc12 12.7%
CCCCc1ccc(-c2csc(/C(C#N)=C\c3ccco3)n2)cc1 6.19% [at 50 µM]
CCN(c1ccccc1)S(=O)(=O)c1ccc(Cl)c(C(=O)NCCc2ccc(OC)cc2)c1 2.41% [at 0.782 µM]
C=C(C)CNC(=S)Nc1nc2c(cc1C(=O)OCC)CCCC2 2.44% [at 25 µM]
CN(Cc1cc(-c2ccccc2)on1)C(=O)c1cc(COc2c(F)cccc2F)on1 2.21% [at 1.563 µM]
COc1ccc(C(=O)CSc2nc(C(C)(C)C)nc3ccccc23)cc1 2.25% [at 1.563 µM]
CCCCN(CCCC)c1nc2ccccc2nc1C(C#N)C(=O)NCCCOC (centres undefined) 3.86%
CCCn1c2c(c(O)c(C(=O)Nc3ccccc3)c1=O)CCCC2 2.68% [at 50 µM]
O=c1c2ccccc2nc(SCc2cccc(F)c2)n1-c1cccc(S(=O)(=O)N2CCCC2)c1 3.66%
COc1ccc(C(=O)/C=C/C(=O)N(CC(=O)NCCC(C)C)Cc2cccs2)c(O)c1 5.31%
COc1ccc(NC(=O)C23CC4CC(C2)CC(c2ccccc2)(C4)C3)c(OC)c1 4.13%
C=CCn1cccc(/C=C/C(=O)c2ccc(C(C)(C)C)cc2)c1=S 7.29%
COc1cccc(N/C(SCc2ccccc2F)=C(/C#N)C(=O)NCc2cccs2)c1 5.29%
O=C(COC(=O)CCc1c[nH]c2ccccc12)NC(c1ccccc1)c1ccccc1 2.92% [at 50 µM]
C=CCn1c(SCc2cc(=O)n3ccsc3n2)nc2ccccc2c1=O 7.32%
COc1ccc(C(=O)/C=C/c2ccc(O)cc2)c(O)c1CC=C(C)C 2.58%
CCOC(=O)c1sc(-c2ccc(OC)cc2)cc1NC(C)=O 2.72%
CCc1sc(C(=O)Nc2cc(Cl)ccc2N2CCCCC2)cc1C 3.88% [at 50 µM]
Cc1cc(C)c(OC2(c3ccccc3)OC(=O)c3ccccc32)c(C)c1 (centres undefined) 3.41%
CCOC(=O)/C(=N/Nc1ccc(C)cc1)S(=O)(=O)c1ccc(Cl)cc1 1.64% [at 0.782 µM]
CSCSC1=C(C#N)C(c2ccc(Cl)cc2)C(C(C)=O)=C(C)N1 (centres undefined) 2.59%
CCCCC1(Cc2cccc([N+](=O)[O-])c2)C(=O)N(c2ccccc2)N(c2ccccc2)C1=O 4.01% [at 50 µM]
O=C(/C=C/c1ccc(-c2ccccc2)o1)c1ccccc1 5.06%
O=C(OCC#CCSc1nnc(-c2cccc3ccccc23)o1)c1cccs1 1.43% [at 25 µM]
COc1ccc(-c2nc3ccccc3c(=O)n2CCOc2cc(C)ccc2C)cc1 4.64% [at 25 µM]
CCCOc1cccc(C(=O)NC(=S)Nc2cccc(C(F)(F)F)c2)c1 3.9%
O=C(COC(=O)CCCNC(=O)c1ccc(Cl)cc1)Nc1cc(Cl)c(Cl)cc1Cl 3.97% [at 50 µM]
COc1ccc2c(c1)CCc1c(C(=O)NCCc3ccc(OC)c(OC)c3)noc1-2 8.66%
Cc1oc2ccc(OC(=O)c3cccs3)cc2c1C(=O)OC(C)C 2.38% [at 6.25 µM]
O=C(CNS(=O)(=O)c1c(Cl)cccc1Cl)OCc1csc(-c2ccccc2)n1 2.5% [at 25 µM]
O=C(CSc1nnc(Cc2cccs2)n1Cc1ccco1)Nc1cc(Cl)cc(Cl)c1 1.96% [at 12.5 µM]
COc1ccc(CNc2oc(COc3ccc(Cl)cc3)nc2C#N)cc1 3.84% [at 25 µM]
COC(=O)[C@@H]1CC[C@H](C)[C@@H](c2ccc(C)cc2)N1C(=O)c1ccc(/C=N/OC[C@@H](O)COCc2ccco2)cc1 2.31% [at 0.391 µM]
COc1ccccc1OC(=O)CCN1c2ccccc2Sc2ccccc21 4.59%
N#CC(Nc1ccccc1)c1ccccc1OCc1ccccc1 (centres undefined) 1.53% [at 0.391 µM]
COc1ccc(-c2nc3ccccc3c(=O)n2CCOc2c(C)cccc2C)cc1 4.92%
O=C(COC(=O)CC(c1ccccc1)c1ccccc1)Nc1ccc(F)c(F)c1 1.55% [at 25 µM]
O=C(CCC1CCCCC1)Nc1ccccc1-c1ccccc1 5.76%
CCNC(=O)CSc1nnc(-c2ccccc2Br)n1-c1cccc(C(F)(F)F)c1 4.29% [at 6.25 µM]
CCOC(=O)c1cc(-c2ccccc2)sc1NC(=O)C(C)OC(=O)c1cccnc1OCC (centres undefined) 7.09% [at 25 µM]
CC(C)CC(=O)NC(=S)Nc1nc(-c2ccccc2)cs1 2.96% [at 1.563 µM]
CCOC(=O)C(C)(C)N(Cc1cccc(C)c1)S(=O)(=O)c1cccc([N+](=O)[O-])c1 2.41% [at 50 µM]
CC1(C)CC(=O)C2=C(C1)c1c(ccc3ccccc13)NC2c1ccco1 (centres undefined) 2.09% [at 25 µM]
CCOC(=O)c1c(-c2cccc([N+](=O)[O-])c2)csc1NC(=O)CCCOc1ccccc1OC 2.67% [at 50 µM]
CCCCCCN(C(=O)CCCCCN1C(=O)NC(c2ccc(-c3ccccc3)cc2)C(C(=O)OCc2ccccc2)=C1C)C(C(=O)NCCCC)c1ccc(OCC(=O)OC)cc1 (centres undefined) 8.74%
CCN(CC)S(=O)(=O)c1cc(NS(=O)(=O)c2c(Cl)cccc2Cl)ccc1C 3.03% [at 50 µM]

Four consecutive records from above, quoted:
Max inhibition, inactive:
COc1ccccc1OC(=O)CCN1c2ccccc2Sc2ccccc21 4.59%
N#CC(Nc1ccccc1)c1ccccc1OCc1ccccc1 (centres undefined) 1.53% [at 0.391 µM]
COc1ccc(-c2nc3ccccc3c(=O)n2CCOc2c(C)cccc2C)cc1 4.92%
O=C(COC(=O)CC(c1ccccc1)c1ccccc1)Nc1ccc(F)c(F)c1 1.55% [at 25 µM]
